Patent publication US9381349B2, “Apparatus for treating cerebral neurovascular disorders including headaches by neural stimulation” (priority 1997, dated 2016)
For part of these data: At least one compound was matched to its structure with a doubt left. Some results were stated once for a whole list of compounds, not compound by compound.

Legend:
recurring migraine = experiment: Dorsonasal ropivacaine therapy in recurring migraine: frequency and severity of subsequent episodes (Example 3); assay type: in vivo, human; conditions: patient 3-3; saturated swab; from 10, within 10 minutes
From the text: The following studies relate to the methods of decreasing the frequency and severity of CNvD episodes described herein, and involved three patients.
A patient, herein designated “patient 3-1” was afflicted with recurring severe migraine, wherein acute migraine episodes were associated with nausea and visual changes. Patient 3-1 generally rated the severity of head pain associated with acute migraine episodes in the range from five to eight using the pain scale described herein. Patient 3-1 experienced, on average, about one acute migraine episode per week prior to beginning dorsonasal ropivacaine therapy. In addition, patient 3-1 also usually experienced about one severe acute migraine episode per month, associated with menses, wherein the severity of head pain was from eight to ten using the pain scale described herein.
Ropivacaine was dorsonasally administered to patient 3-1 using the cotton swab technique described herein. The patient has consistently experienced relief from all of the symptoms of their CNvD episodes within 3 to 5 minutes following administration of ropivacaine, regardless of whether the episodes are associated with menses.
A person, herein designated, “patient 3-2,” was afflicted with recurring migraines. […]

migraine = conditions: within two hours post treatment; cited from earlier work

Row | SMILES | Head pain rating after administration (recurring migraine) | Patients with inhibition of pain (migraine)
1 | CCCN1CCCC[C@H]1C(=O)Nc1c(C)cccc1C [Ropivacaine, ropivacaine] | 0 or 1 | –
2 | CN(C)CCc1c[nH]c2ccc(Cn3cncn3)cc12 [rizatriptan] | – | 40-50%
3 | CNS(=O)(=O)Cc1ccc2[nH]cc(CCN(C)C)c2c1 [sumatriptan] | – | 40-50%
